Measured values as given in publication PMC10478313.
Results are given in words; binding and its absence hold for the method and conditions named. Binding seen in cells or lysates may run through a third protein. Some entries that bind do so weakly or less than the wild type.

Protein sequences, listed by entry. Tags and fused reporters are not part of them.
UniProt Q15436: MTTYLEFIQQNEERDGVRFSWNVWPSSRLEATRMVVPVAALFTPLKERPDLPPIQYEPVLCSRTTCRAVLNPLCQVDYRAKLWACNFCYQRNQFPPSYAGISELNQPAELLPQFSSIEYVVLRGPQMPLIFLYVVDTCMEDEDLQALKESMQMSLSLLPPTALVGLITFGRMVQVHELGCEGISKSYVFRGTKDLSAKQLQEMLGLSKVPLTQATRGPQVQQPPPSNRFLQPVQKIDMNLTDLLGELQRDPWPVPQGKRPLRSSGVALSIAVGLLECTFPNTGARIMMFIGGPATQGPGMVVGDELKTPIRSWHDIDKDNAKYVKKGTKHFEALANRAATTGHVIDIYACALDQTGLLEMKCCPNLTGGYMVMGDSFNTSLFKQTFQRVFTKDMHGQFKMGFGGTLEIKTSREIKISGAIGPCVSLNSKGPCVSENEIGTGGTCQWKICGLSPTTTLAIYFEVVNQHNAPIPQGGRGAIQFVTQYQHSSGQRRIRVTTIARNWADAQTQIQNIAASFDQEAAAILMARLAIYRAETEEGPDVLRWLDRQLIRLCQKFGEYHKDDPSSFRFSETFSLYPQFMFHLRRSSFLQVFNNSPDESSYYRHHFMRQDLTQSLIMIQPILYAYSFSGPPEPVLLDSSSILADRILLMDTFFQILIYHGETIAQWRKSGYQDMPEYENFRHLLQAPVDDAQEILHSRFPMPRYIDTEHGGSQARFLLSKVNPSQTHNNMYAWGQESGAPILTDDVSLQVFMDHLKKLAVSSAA
UniProt P07355: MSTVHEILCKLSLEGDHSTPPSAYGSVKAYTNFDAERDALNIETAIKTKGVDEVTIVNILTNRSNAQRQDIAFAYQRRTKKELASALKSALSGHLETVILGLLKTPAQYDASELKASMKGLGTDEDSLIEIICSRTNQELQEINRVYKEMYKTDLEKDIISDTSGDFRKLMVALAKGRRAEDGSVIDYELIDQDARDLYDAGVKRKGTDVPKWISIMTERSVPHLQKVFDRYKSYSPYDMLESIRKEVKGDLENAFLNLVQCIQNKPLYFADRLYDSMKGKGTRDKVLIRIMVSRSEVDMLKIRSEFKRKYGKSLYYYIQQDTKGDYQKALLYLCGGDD

Target: Sec23 homolog A (SEC23A) (human (endogenous in MKN45 and HGC27)) (UniProt Q15436)
Test: co-IP; Co-IP with anti-SEC23A and anti-ANXA2 antibody, endogenous proteins in MKN45 cells (Fig. 6C) and HGC27 cells (Fig. S5A)

binding: binds
Substance: Annexin A2 (ANXA2) (from UniProt P07355 1-339)
